# Patent publication US11592453B2, “Personalized metabolomic profiling of specialized pro-resolving mediators” (THE BRIGHAM AND WOMEN'S HOSPITAL, INC., priority 2016, dated 2023)
# For at least one compound, name, drawing or mass did not settle the structure.
# System: SPM production in human whole blood
# Assay: SPM and eicosanoid production during coagulation with heparin, eptifibatide, ADA, celecoxib or BAI
# Format: cell-based
# Settings: 500 nM celecoxib, 24 hours
# Description: FIG. 2 illustrates regulators of SPM formation in human blood. (A to E) Freshly drawn human peripheral blood (4 ml) containing heparin (10 U/ml) was placed in polypropylene tubes (A) whereas human peripheral blood without anticoagulant was placed in silicone-coated tubes (B to E) and incubated at 37° C. for the time course of 0 to 24 hours (see Example 1, Materials and Methods). The samples were then subjected to snap-freezing for extraction and LC-MS/MS analysis. (A) Concentrations of the members of the SPM cluster (identified in FIG. 1) in samples treated without (Coag.) or with heparin (10 U/ml) during the incubation period. Data are means±SEM of three individual donors. (B) Left: Combined concentrations of the total SPM cluster, prostaglandins, and thromboxanes after 24 hours of coagulation in the presence or absence of the αIIbβ3 inhibitor eptifibatide (Eptifib.; 20 μM). Middle: Clot volumes after 24 hours of coagulation of the indicated samples. Right: Representative clot images. Data are means±SEM of three individual donors. (C) Concentrations of total SPMs and of the indicated individual SPMs after 24 hours of coagulation in the presence or absence of 200 mU ADA. Data are means±SEM of three individual donors. *P<0.05, **P<0.01 by ratio t-test. […]
smiles,measurement,value
Cc1ccc(-c2cc(C(F)(F)F)nn2-c2ccc(S(N)(=O)=O)cc2)cc1 [celecoxib],"amounts of SPMs, prostaglandins, or thromboxanes in whole blood",did not statistically significantly alter
